No constants are given. Whether binding was seen depends on the method and setting. In cells and extracts the contact can be indirect. Some results given as binding are weak or reduced against the parent protein; the word gives no strength.
Assays:
[1] = molecular target: cyclin D3 (human (endogenous in MCF7)) (UniProt P30281); assay: co-IP; anti-cyclin D3 IP with IgG as control; cold NP-40 lysis buffer (0.25% NP-40, 50 mM Tris pH 8.0, 100 mM sodium chloride); immune complexes captured on Protein G Sepharose; immunoblot
[2] = molecular target: Keratin 19 (human (endogenous in MCF7)) (UniProt P08727); assay: co-IP; anti-K19 IP with IgG as control; cold Triton lysis buffer (1% Triton X-100, 40 mM HEPES pH 7.5, 120 mM sodium chloride, 1 mM EDTA) supplemented with 2% empigen; immune complexes captured on Protein G Sepharose; immunoblot

Amino acid sequences for entries named in this document (tags omitted).
UniProt P30281: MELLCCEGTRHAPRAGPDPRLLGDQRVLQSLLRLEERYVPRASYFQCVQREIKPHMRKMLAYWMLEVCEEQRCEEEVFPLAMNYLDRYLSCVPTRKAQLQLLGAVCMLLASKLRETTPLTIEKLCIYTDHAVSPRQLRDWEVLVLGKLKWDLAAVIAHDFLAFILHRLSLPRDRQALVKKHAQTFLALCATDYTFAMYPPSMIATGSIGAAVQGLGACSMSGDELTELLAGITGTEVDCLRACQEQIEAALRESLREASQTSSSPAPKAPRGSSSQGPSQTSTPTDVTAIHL
UniProt P08727: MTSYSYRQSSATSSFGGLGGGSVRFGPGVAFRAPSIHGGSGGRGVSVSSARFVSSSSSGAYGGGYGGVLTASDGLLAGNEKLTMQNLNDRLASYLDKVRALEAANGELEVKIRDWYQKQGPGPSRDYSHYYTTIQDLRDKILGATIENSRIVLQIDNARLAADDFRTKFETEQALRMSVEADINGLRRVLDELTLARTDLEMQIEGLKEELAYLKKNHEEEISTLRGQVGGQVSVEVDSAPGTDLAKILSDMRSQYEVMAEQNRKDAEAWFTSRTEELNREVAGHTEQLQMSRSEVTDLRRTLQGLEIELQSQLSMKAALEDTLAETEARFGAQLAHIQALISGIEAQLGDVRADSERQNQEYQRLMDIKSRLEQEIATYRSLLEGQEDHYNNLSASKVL

Keratin 19 (from UniProt P08727 1-400) was tested, and the binding [1] was “binds”.
For cyclin D3 (from UniProt P30281 1-292), the binding [2] was “binds”.

Reference: publication PMC6787034
